Measured values taken from paper PMC7819943, “Rice protein-binding microarrays: a tool to detect cis-acting elements near promoter regions in rice”.
The other results are listed elsewhere or left out.

molecular target: T1, OsSMF1 (Oryza sativa, UniProt Q6ZLB0 1-436); test: protein-binding microarray (RPBM); PBS, 2% BSA, 51.3 ng/ul salmon testes DNA, 50 uM zinc acetate, 200 nM TF, 25 C, 1 h; high values mean tight binding; conditions: protein: recombinant; tags: N-terminal polyhistidine and DsRed monomer fusion (pET32a); chain copies: 2; label: CyDye5-dUTP incorporated in the synthesized complementary strand; 3' TTTTT single-stranded linker to array surface; dsDNA, one strand shown
T1 sequence: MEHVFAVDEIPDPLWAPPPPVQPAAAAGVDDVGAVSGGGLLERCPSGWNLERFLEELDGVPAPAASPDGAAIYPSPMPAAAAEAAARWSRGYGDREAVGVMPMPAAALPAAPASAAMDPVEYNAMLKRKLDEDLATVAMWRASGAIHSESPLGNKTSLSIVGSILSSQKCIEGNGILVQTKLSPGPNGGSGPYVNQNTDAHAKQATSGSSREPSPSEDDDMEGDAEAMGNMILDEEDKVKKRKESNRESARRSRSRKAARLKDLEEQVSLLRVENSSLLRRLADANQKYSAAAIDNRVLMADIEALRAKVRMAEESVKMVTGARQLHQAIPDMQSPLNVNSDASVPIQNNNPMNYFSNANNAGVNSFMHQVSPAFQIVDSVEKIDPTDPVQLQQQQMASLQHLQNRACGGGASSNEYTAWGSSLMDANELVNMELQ
How it was run: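 Transcription factors, each fused N-terminally to a polyhistidine tag and DsRed, were expressed in E. coli BL21-CodonPlus and purified on Ni–NTA. A custom Agilent array was made double-stranded by primer extension with Cy5-dUTP and blocked with 2% BSA. It was incubated with 200 nM protein in PBS, 2% BSA, salmon testes DNA and 50 µM zinc acetate at 25 °C for 1 h, then washed. The binding signal is per-feature fluorescence intensity (arbitrary units) read on an Axon 4000B scanner.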

Sequence	binding signal
ATCTCGTCCAGATAGTGCCTATAGTAACCTGCCAAATAAACGGAGTCACCTAGTGCAG	3420 fluorescence intensity (a.u.)
GGAGCGCTGGCGCCGGGGCCCCAGCGTCGCCACGTCGATGCGGAGTCACCTAGTGCAG	5990 fluorescence intensity (a.u.)
TTCCATCATATCAAAACTTTCCTACACACATAAACTTTTACGGAGTCACCTAGTGCAG	8300 fluorescence intensity (a.u.)
GCGTGGCCCCACCGCTCAGTGACACACTCCACCCACACCCCGGAGTCACCTAGTGCAG	6410 fluorescence intensity (a.u.)
GTGCGCCATATCGATCACGTATACGTACGCGCGCGTGTTCCGGAGTCACCTAGTGCAG	3340 fluorescence intensity (a.u.)
CATAAACTCATTTTCATCCATCACCCGTCATCCCACAGCTCGGAGTCACCTAGTGCAG	4960 fluorescence intensity (a.u.)
ACCGCTTGCCGAACGTACCACACAGCCAATTCATCGAACACGGAGTCACCTAGTGCAG	3800 fluorescence intensity (a.u.)
TCCTTAAACCAGAGTGGTGACCTGGTCGAGGCCAGCCCGTCGGAGTCACCTAGTGCAG	3720 fluorescence intensity (a.u.)
CTTAATCGGTTAGGTTACTTGGTGTAATCAGCCTACCTGGCGGAGTCACCTAGTGCAG	4030 fluorescence intensity (a.u.)
GCAACTTCTACGTACTCTGTAAGGTAGCCAGCTGCTCGATCGGAGTCACCTAGTGCAG	3200 fluorescence intensity (a.u.)
TGCATGTGCACCTGACTGTTTGGGCTTAGTTGCTACAATGCGGAGTCACCTAGTGCAG	3660 fluorescence intensity (a.u.)
TACCTGAGGAGCACTCCATCGGTCCCAAAATAAATTAACACGGAGTCACCTAGTGCAG	27900 fluorescence intensity (a.u.)
TTGTAAAGGTGTTGATGTACCCCATGATGACATGGAGCTCCGGAGTCACCTAGTGCAG	6450 fluorescence intensity (a.u.)
AGGTTGTGCTGTGATGCTGGAGGGGAGTTGATTACAGGGACGGAGTCACCTAGTGCAG	4070 fluorescence intensity (a.u.)
TAATCCATGGCTAGATAACCGATGTCGTCACCAAACAGATCGGAGTCACCTAGTGCAG	4980 fluorescence intensity (a.u.)
CGCTTCCTCTGCATGCAACACTATTTCCAGCTCACCTCCTCGGAGTCACCTAGTGCAG	4960 fluorescence intensity (a.u.)
TCTTGCCTTCTCTCCCTGTGGGCACGCCGCCACCGACACCCGGAGTCACCTAGTGCAG	5660 fluorescence intensity (a.u.)
ACAAGGCCCACCTCAAGACCTGCGGCACCCGCGGCCACTCCGGAGTCACCTAGTGCAG	4090 fluorescence intensity (a.u.)
CAGGAGGAATCTATAATTTGTTTTGTTATTAGTCTACGTTCGGAGTCACCTAGTGCAG	4730 fluorescence intensity (a.u.)
GGAAATAAACACGTCATGGTGTATTCCTGGCGTGGTTGAGCGGAGTCACCTAGTGCAG	12800 fluorescence intensity (a.u.)
ATGTATATGACCGTCCACGTATATCGCCTAAGCAGTAAAACGGAGTCACCTAGTGCAG	4530 fluorescence intensity (a.u.)
CGCCGTCCACTCCATCCATCGCGTCACCATCCCTTCGCCGCGGAGTCACCTAGTGCAG	8260 fluorescence intensity (a.u.)
CTCGGCTGTGACGACGCACACACCGTCCGCAACCTCGCCCCGGAGTCACCTAGTGCAG	4320 fluorescence intensity (a.u.)

Retrieved one by one from the entries so far, 2 records:
Sequence	binding signal
GGAAATAAACACGTCATGGTGTATTCCTGGCGTGGTTGAGCGGAGTCACCTAGTGCAG	12800 fluorescence intensity (a.u.)
CATAAACTCATTTTCATCCATCACCCGTCATCCCACAGCTCGGAGTCACCTAGTGCAG	4960 fluorescence intensity (a.u.)
